Test results as given in paper PMC7505975.
Where a chain is given by its changes, count along the chain named. No constants are given. Whether binding was seen depends on the method and setting. Some binding calls cover weakened binding; strength is not graded here. Sequences can lack the tags named with a protein.

Legend:
[1] = molecular target: T1, Schizosaccharomyces pombe U2AF1 (U2AF small subunit), wild type (Schizosaccharomyces pombe) (UniProt Q09176); test: crystal structure; U2AF1 complex (U2AF1 with U2AF2 93-161) co-crystallised with 3' splice site RNA (1:1.5); hanging-drop vapor diffusion, 10% PEG35000, 0.1 M sodium citrate pH 6.0, 4 or 20 °C; nine copies in the asymmetric unit; both purified
T1 sequence: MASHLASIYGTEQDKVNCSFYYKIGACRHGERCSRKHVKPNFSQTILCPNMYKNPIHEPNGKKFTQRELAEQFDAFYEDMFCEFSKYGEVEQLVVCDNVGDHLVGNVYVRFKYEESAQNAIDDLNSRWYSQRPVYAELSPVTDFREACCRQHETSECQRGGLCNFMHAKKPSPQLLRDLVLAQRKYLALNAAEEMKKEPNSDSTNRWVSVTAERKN

[2] = molecular target: T2, Schizosaccharomyces pombe U2AF1 S34Y mutant (Schizosaccharomyces pombe) (UniProt Q09176); test: as above
T2 sequence: T1 sequence with S34Y

B1: Schizosaccharomyces pombe U2AF2 short fragment (residues 93-161) (domain or fragment, UniProt P36629 93-161)
chain: SSVGRSRSPPPSRERSVRSIEQELEQLRDVTPINQWKRKRSLWDIKPPGYELVTADQAKMSGVFPLPGA
In the case of B1, the binding [1] is reported as “binds” and the binding [2] is reported as “binds”.
